From patent publication US6013453 come the findings set out here.

The subject of this series is T1, zinc finger peptide 1B-2A-3B (synthetic construct).
T1 sequence: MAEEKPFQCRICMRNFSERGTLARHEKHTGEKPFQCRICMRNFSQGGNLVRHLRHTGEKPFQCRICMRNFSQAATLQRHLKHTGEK
Description: ELONA. As to conditions: protein in a lysate after overexpression, label: biotin.

At least one result comes from cells or an extract, where the contact may be indirect. Protein sequences can lack the tags named with them. For at least one entry, the source does not settle the construct or the ends of the probe. The comparison behind a weaker result is the experiment's own reference, which may not be listed here.

In the case of “CCCCTTTCTCTTCCAGAAGCCCTTCAGCGGCCA (double strand) [genomic c-ABL intron 1/exon 2 junction]”, the binding result (discriminates against c-ABL, variant of p190 BCR-ABL cDNA fusion site) is recorded as “binds more weakly”.

“TTCCATGGAGACGCAGAAGCCCTTCAGCGGCCA (double strand) [p190 BCR-ABL cDNA fusion site]”: the binding result (lower affinity than 1A-2A-3B) is given as “binds”.

“TTCCATGGAGACGCAGGTGAGTTCCTCACGCCA (double strand) [genomic BCR exon 1/intron 1 junction]”: the binding result (discriminates against genomic BCR, variant of p190 BCR-ABL cDNA fusion site) is listed as “binds more weakly”.
